Source: publication PMC11798735
Results are given in words; binding and its absence hold for the method and conditions named. Binding seen in cells or lysates may run through a third protein. Binding calls can cover weak binding; strength is not graded here.

Sequences of proteins named here, by UniProt entry; tags and fusion partners are left off. A change or cut given only in a name is not applied to a line headed by its entry.
UniProt P08151: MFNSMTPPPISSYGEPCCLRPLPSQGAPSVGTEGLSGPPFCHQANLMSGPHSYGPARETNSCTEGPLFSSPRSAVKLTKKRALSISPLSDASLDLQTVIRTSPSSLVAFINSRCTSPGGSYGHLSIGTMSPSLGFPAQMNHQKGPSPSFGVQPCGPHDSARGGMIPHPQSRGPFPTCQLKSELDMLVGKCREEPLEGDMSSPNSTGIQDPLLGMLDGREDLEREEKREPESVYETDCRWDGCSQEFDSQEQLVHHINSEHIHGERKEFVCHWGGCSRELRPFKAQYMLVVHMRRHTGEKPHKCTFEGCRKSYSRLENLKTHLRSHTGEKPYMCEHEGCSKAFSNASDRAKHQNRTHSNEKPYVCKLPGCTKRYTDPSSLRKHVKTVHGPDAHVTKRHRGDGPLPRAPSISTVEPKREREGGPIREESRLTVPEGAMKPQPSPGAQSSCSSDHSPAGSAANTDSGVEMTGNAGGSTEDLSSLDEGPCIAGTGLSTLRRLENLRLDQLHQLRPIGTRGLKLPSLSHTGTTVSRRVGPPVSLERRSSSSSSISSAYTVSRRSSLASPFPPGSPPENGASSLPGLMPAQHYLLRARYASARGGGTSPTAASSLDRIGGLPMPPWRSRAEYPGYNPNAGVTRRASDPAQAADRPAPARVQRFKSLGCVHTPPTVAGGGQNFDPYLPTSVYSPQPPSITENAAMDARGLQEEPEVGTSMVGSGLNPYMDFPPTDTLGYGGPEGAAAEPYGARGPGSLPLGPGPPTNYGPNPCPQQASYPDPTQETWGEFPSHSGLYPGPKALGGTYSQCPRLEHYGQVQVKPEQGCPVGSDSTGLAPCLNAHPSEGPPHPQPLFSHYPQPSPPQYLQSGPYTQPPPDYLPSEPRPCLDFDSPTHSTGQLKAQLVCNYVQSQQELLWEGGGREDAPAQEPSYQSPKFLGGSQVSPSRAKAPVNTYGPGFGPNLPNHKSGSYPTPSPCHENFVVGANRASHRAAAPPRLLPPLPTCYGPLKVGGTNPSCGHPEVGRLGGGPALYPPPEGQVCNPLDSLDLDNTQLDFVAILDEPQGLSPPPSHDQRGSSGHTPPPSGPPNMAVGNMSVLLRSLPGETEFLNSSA
UniProt P12643: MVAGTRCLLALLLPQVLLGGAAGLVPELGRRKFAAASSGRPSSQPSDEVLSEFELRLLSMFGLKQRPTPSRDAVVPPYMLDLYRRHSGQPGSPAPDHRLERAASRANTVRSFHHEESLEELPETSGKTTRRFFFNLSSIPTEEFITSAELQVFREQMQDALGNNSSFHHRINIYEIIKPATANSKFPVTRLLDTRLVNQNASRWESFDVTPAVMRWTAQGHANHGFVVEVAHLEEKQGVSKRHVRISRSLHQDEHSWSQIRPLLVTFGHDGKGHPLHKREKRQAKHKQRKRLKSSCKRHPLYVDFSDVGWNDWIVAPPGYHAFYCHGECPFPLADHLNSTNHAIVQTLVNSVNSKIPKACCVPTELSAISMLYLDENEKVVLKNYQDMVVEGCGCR
UniProt P12644: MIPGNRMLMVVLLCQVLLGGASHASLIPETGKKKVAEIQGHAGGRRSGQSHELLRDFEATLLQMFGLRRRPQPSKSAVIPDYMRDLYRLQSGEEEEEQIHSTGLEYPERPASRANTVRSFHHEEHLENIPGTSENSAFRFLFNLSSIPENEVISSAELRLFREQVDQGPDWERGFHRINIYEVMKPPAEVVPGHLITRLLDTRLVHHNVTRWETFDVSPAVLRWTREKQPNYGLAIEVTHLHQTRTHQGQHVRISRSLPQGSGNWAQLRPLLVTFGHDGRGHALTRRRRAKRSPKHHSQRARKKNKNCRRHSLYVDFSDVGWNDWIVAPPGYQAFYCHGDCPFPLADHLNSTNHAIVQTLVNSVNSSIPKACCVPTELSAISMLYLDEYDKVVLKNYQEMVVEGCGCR

Molecular target: GLI Family Zinc Finger 1 (GLI1) (human (endogenous in primary PLL or OPLL cells; the cells of the co-IP are not named)) (UniProt P08151)
Assay: co-IP; Immunoprecipitation Kit (Beyotime); cell lysate in CoIP lysis buffer with protease inhibitor cocktail, primary antibodies overnight at 4 °C, Protein A + G magnetic beads 3 h, three washes, Western blot

binding	Substance
binds	BMP2 (from UniProt P12643)
no binding	BMP4 (from UniProt P12644)
